# From PubChem BioAssay AID2685 (National Center for Advancing Translational Sciences (NCATS), 2010)
# The list shows a part of the results. These are further read-outs of the screen, such as a control signal, another cell line or another target. No call is given for them. The list favours compounds with an active or inconclusive main result. Potencies come from curve fits of mixed quality, noted in brackets.
# Assay: qHTS Assay for Lipid Storage Modulators in Drosophila S3 Cells;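 on cell number change: cells counted by Cell Tracker Red CMTPX staining in the red channel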
# Details: BODIPY lipid droplet fluorescence, 18-24 h; for cell number change: measured here: cell count max response, cells fed with added oleic acid
# Outline: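 Laser-scanning cytometry quantifies lipid droplet accumulation (500–530 nm total intensity; droplet/cell object ratio) in oleic acid-fed (400 uM added) Drosophila S3 cells treated with a concentration series. 20 uM Triacsin C defined 100% inhibition.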
# [1] = measured here: lipid fluorescence (Fed channel) AC50, cells fed with added oleic acid
# [2] = measured here: cell number channel AC50, cells fed with added oleic acid
SMILES,cell number change [%],AC50 [1],AC50 [2]
Cc1cccc(NS(=O)(=O)c2ccc(C(=O)N3CCN(c4ccccc4O)CC3)cc2)c1C,-25.7,"29.1 µM [falling, single point]",
CCOC(=O)c1c(CC(C)C)csc1NC(=O)COC(=O)C1=NNC(=O)CC1,8,,
O=C(COC(=O)c1cc(Cl)ccc1O)NCCNC(=O)COC(=O)c1cc(Cl)ccc1O,18.5,,
CCOc1ccc(NC(=O)NCC2CCN(Cc3ccc(F)cc3)CC2)cc1,-26.2,,
O=C(OCc1ccc([N+](=O)[O-])cc1)C1CCN(S(=O)(=O)c2ccccc2)CC1,9.39,"3.26 µM [rising, single point]",
O=C(COC(=O)Cn1cnc2ccccc21)NCCc1ccccc1,-8.01,"0.184 µM [falling, full curve, poor fit]",
Cc1ccc(N2CC(C(=O)Nc3ccc(S(=O)(=O)N4CCCC4)cc3)CC2=O)cc1 (stereo unspecified),-9.64,"5.8 µM [falling, full curve, poor fit]",
CCOc1ccc2[nH]cc(C(=O)NCc3ccc(F)cc3)c(=O)c2c1,3.16,,
COCC(=O)N1CCCc2ccccc21,17.3,"16.4 µM [rising, single point]",
CC1CC(C)CN(CCCNC(=O)c2c(O)nc3ccccn3c2=O)C1 (stereo unspecified),-10,,
CCC(CC)c1nn2c(N)c(/C=C3\C=Nc4ccccc43)c(=O)nc2s1,-29.3,"0.00651 µM [falling, full curve, poor fit]",
CC(=O)OCCCNc1cc(Sc2ccc(Cl)cc2)c2nonc2c1[N+](=O)[O-],-24.5,"4.61 µM [falling, full curve]","4.61 µM [falling, full curve, poor fit]"
O=C1OC(Nc2ccc3c(c2)OCO3)c2ccccc21 (stereo unspecified),9.68,"6.51 µM [rising, single point]",
COC(=O)c1ccccc1COn1c(=O)c(C)[n+]([O-])c2ccccc21,-5.22,,
COC(=O)c1cc(C(=O)NCCN2C(=O)S/C(=C\c3cccs3)C2=O)cc([N+](=O)[O-])c1,,"9.2 µM [rising, partial curve, poor fit]",
O=C(CCNC(=O)N1CC(=O)Nc2ccccc21)NCc1ccc(F)cc1,-12.5,,"0.82 µM [rising, single point]"
Cc1ccc(Nc2nnc(SCC(=O)c3ccc(O)cc3O)s2)cc1,-14.5,"1.41 µM [rising, partial curve]",
O=C1/C(=C/Nc2cccc([N+](=O)[O-])c2)CCc2ccccc21,25.9,,
Cc1ccc(CN2CCC(n3nccc3NC(=O)c3ccc4c(c3)OCO4)CC2)o1,-4.95,"29.1 µM [rising, single point]","2.59 µM [rising, single point]"
O=C(O)c1ccc(COc2cccc(CO)c2)cc1,-2.97,,

SMILES,cell number change [%],AC50 [1],AC50 [2]
CCCNc1nc2c(c(=O)n(C)c(=O)n2C)n1Cc1cccc(C)c1,-42.6,"20.6 µM [falling, partial curve]","4.11 µM [falling, partial curve]"
CC1(C)CC(=O)C2=C(C1)N=C1c3ccccc3C(=O)C1C2c1ccc(Cl)cc1 (stereo unspecified),-6.18,"0.092 µM [rising, full curve]","2.06 µM [rising, partial curve]"
Cc1c(C(C)(C)O)[nH]c2cc(C(F)(F)F)ccc12,14.6,"29.1 µM [rising, single point]",
COC(=O)CSc1nnc(CNC(=O)c2ccc(S(=O)(=O)N3CCCCC3)cc2)n1C,1.77,"32.6 µM [falling, single point]",
CCN(C(=O)Cc1c(C(=O)O)[nH]c2ccccc12)c1ccc(OC)cc1,-44.4,"6.51 µM [falling, single point]","7.31 µM [falling, partial curve]"
O=C1c2ccccc2C(=O)N1c1ccc(S(=O)(=O)N2CCCCC2)cc1,-8.42,"20.6 µM [falling, single point]",
CCCCCn1c(=NC(=O)c2ccco2)c(C(=O)OCC)cc2c(=O)n3ccccc3nc21,4.79,"0.326 µM [rising, partial curve, poor fit]",
Cc1ccc(Cl)cc1NC(=O)NCc1cccnc1,-27.2,"29.1 µM [rising, single point]",
CCN(C(=O)CN1CCCCC1C)c1c(N)n(Cc2ccccc2)c(=O)[nH]c1=O (stereo unspecified),,"0.259 µM [rising, partial curve, poor fit]",
CS(=O)(=O)N1CCN(C(=O)NC2CCCCC2)CC1,-1.39,,
CN(C(=O)COC(=O)c1ccc2[nH]c3c(c2c1)CCCC3)C1CCS(=O)(=O)C1 (stereo unspecified),61.7,,"0.082 µM [rising, full curve, poor fit]"
Cc1ccc(-n2nnnc2Sc2ccc(S(=O)(=O)NCCN(C)C)cc2[N+](=O)[O-])cc1,33.3,"20.6 µM [falling, single point]","1.64 µM [rising, partial curve]"
Cc1nc2ccc(-c3nc4ccccc4[nH]3)cc2[nH]1,-43.9,"0.0517 µM [falling, full curve, poor fit]",
COc1ccc([C@@H]2[C@@H]3C(=O)N(C(C)(C)C)C(=O)[C@@H]3[C@]3(Cc4ccc(Cl)cc4)C(=O)N(c4cccc(F)c4)C(=O)N23)cc1,-5.68,"0.058 µM [rising, full curve, poor fit]",
CCc1ncc(CN2CCC(C(=O)Nc3cccc(-c4cscn4)c3)CC2)cn1,-19.3,"29.1 µM [falling, single point]",
Clc1ccccc1-c1nnc(-c2ccc3c(c2)OCO3)o1,16.9,"0.13 µM [rising, full curve, poor fit]",
CCCCNC(=O)/C(C#N)=C/c1ccc(F)cc1F,-0.136,"0.116 µM [falling, full curve]","0.116 µM [falling, full curve, poor fit]"
COc1cc(C(=O)O)ccc1Cl,-11.8,"0.00461 µM [falling, full curve, poor fit]",
COc1ccnc(Oc2ccc(F)cc2)c1C(=O)N/C=N/OCc1ccccc1,26.2,,
CCCC(C(=O)NC(C)(C)CC)N(Cc1ccco1)C(=O)CNS(=O)(=O)c1ccccc1 (stereo unspecified),-17.9,,

# Reprinted from the listing (five entries):
SMILES,cell number change [%],AC50 [1],AC50 [2]
CC1(C)CC(=O)C2=C(C1)N=C1c3ccccc3C(=O)C1C2c1ccc(Cl)cc1 (stereo unspecified),-6.18,"0.092 µM [rising, full curve]","2.06 µM [rising, partial curve]"
Cc1c(C(C)(C)O)[nH]c2cc(C(F)(F)F)ccc12,14.6,"29.1 µM [rising, single point]",
COC(=O)CSc1nnc(CNC(=O)c2ccc(S(=O)(=O)N3CCCCC3)cc2)n1C,1.77,"32.6 µM [falling, single point]",
CCN(C(=O)Cc1c(C(=O)O)[nH]c2ccccc12)c1ccc(OC)cc1,-44.4,"6.51 µM [falling, single point]","7.31 µM [falling, partial curve]"
O=C1c2ccccc2C(=O)N1c1ccc(S(=O)(=O)N2CCCCC2)cc1,-8.42,"20.6 µM [falling, single point]",

# Carrying on:

SMILES,cell number change [%],AC50 [1],AC50 [2]
Cc1ccc(Oc2cc(NC(=O)CCCn3nc([N+](=O)[O-])cc3C)cc([N+](=O)[O-])c2)cc1,-2.44,"20.6 µM [falling, partial curve, poor fit]",
CCOC(=O)c1cnc2ccc(F)cc2c1Nc1ccc2c(c1)OCCO2,-9.77,"0.146 µM [rising, partial curve]",
COC(=O)c1cccc(NCN2C(=O)c3ccccc3C2=O)c1,10.7,,
NC(=O)C1CCN(Cc2nnnn2Cc2ccco2)CC1,-4.16,"0.103 µM [falling, full curve, poor fit]",
NC(=O)c1cn(-c2ccccc2)nc1-c1cc2ccccc2oc1=O,,"6.51 µM [falling, single point]","0.82 µM [falling, full curve, poor fit]"
CCOC(=O)C1CCN(C(=O)c2cc3cc4ccc(C)cc4nc3o2)CC1,11.5,"0.164 µM [rising, full curve, poor fit]",
COc1cccc(NC(=O)COC(=O)/C=C/c2ccco2)c1,11.1,"10.3 µM [rising, partial curve, poor fit]",
CCn1c(SCc2nc3ccccc3c(=O)[nH]2)nnc1C(C)NC(=O)c1ccccc1 (stereo unspecified),-8.39,"0.00411 µM [rising, full curve, poor fit]",
COc1ccccc1OCC(=O)Nc1cc(C(F)(F)F)ccc1-n1cncn1,,"0.58 µM [falling, partial curve, poor fit]","0.82 µM [rising, partial curve, poor fit]"
Cc1ccc(N(C)C(=O)C2CCCN2S(=O)(=O)c2cccc3nsnc23)cc1 (stereo unspecified),26.2,"9.2 µM [rising, partial curve]",
O=C(NCCc1ccccc1)C(=O)NCC1OCCN1S(=O)(=O)c1cccs1 (stereo unspecified),,,"0.0517 µM [rising, full curve, poor fit]"
Cc1ccc(C)c(SCC(=O)Nc2oc(C)c3c(C)n[nH]c(=O)c23)c1,-8.48,"2.06 µM [rising, partial curve, poor fit]",
FC(F)(F)c1ccc(CN2C[C@@H]3C(c4ccccc4)C4(c5ccccc5)CC3(C4)[C@H]2c2ccccc2)cc1 (stereo partly specified),-61.9,"20.6 µM [falling, single point]","29.1 µM [falling, single point]"
CCN(c1ccccc1)S(=O)(=O)c1ccc(NN)nc1,-28.1,"23.1 µM [rising, partial curve, poor fit]","0.0731 µM [falling, full curve, poor fit]"
CCOC(=O)c1c(NC(=O)CNC2CCCCC2)sc(C)c1C,-31.4,"23.1 µM [falling, partial curve]","14.6 µM [falling, single point]"
Cc1cc(/C=C(\C#N)C(=O)O)c(C)n1C1CC1,-33.3,,"32.6 µM [falling, single point]"
COc1cc(Cl)ccc1OCc1cc(C(=O)N(C)Cc2cn(C)nc2C)no1,,,"2.06 µM [rising, partial curve]"
CCN1C/C(=C/c2ccc(N3CCOCC3)cc2)C(=O)/C(=C/c2ccc(N3CCOCC3)cc2)C1,-96.5,"5.8 µM [falling, full curve]","16.4 µM [falling, single point]"
